System: HepG2 cells
Assay: BMX-L1000 gene expression, differentially expressed genes
Assay type: cell-based
Conditions: BMX (1 μM) vs DMSO control, 1.5-fold change, p-value<0.05
Excerpt: Indirect process: CLUE calculated the connectivity score of shRNA HDAC8 among their one million profiles and ordered the similarity to opposite compounds as well as gene perturbations. The criteria were filtered above 90 positive scores and collected each instance targeted-genes as shRNA HDAC8 regulators in biological function. Input this genes list in CPDB platform for enrichment analysis to obtain clear pathways information. Direct process: Based on BMX-L1000 gene expression data, both up-regulation and down-regulation gene list which respond to the drug biological function in HepG2 cells. BMX (1 μM) compared to DMSO control to define the significant differential expression genes (DEGs) according to ±1.5 fold change, p-value<0.05. […] To narrow down the prioritized pathways, we interested two results and selected the common element.
To explore possible mechanisms of HDAC8 inhibitor and gene involvement, we used Connectivity map (C-Map) and the Library of Integrated Network-Based Cellular Signatures Unified Environment (CLUE) systemic database (https://clue.io/) and ConsensusPathDB (CPDB) platform (http://cpdb.molgen.mpg.de/) for the comprehensive mechanism analysis. […] Next, we analyzed the HDAC8 inhibition function through an indirective approach, pattern matching algorithm of the CLUE platform. […]

## COc1ccc(COc2c(/C=C/C(=O)NO)ccc(OC)c2CC=C(C)C)cc1 [BMX, (E)-2-(4-Methoxybenzyloxy)-3-prenyl-4-methoxy-N-hydroxycinamide]
  significant differentially expressed genes, down-regulation: 900
  significant differentially expressed genes, up-regulation: 1583

Source: patent publication US11980594B2, “Composition and method for treating a drug-resistant cancer” (NOVELWISE PHARMACEUTICAL CORPORATION, priority 2021, dated 2024)
